What all share (assay): log2 fold change, soluble protein after heating vs DMSO (PISA); higher = thermal stabilisation; K562 cells, 10 uM, 30 min; active = over 0.2 and 3.5 SD of the protein, either way, in both replicates (recomputed)
Compound in test [1]: CC1=C(SC2=C1C(=N[C@H](C3=NN=C(N32)C)CC(=O)N)C4=CC=C(C=C4)Cl)C
The procedure, abridged:
(§1)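 K562 cells at 2×10^6 cells/mL were treated for 30 min with 10 μM compound, and aliquots were heated for 3 min over 48°C-58°C before pooling. Extraction used PBS with 0.5% NP-40 at 4°C, and soluble protein was the supernatant after 21,000xg for 90 min, measured by TMTpro 16plex LC-MS/MS with channel sums equalised. Thermal stability values, relative to control samples and from duplicates, are log2 fold changes.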

Sequences of proteins named here, by UniProt entry; tags and fusion partners are left off. A change or cut given only in a name is not applied to a line headed by its entry.
UniProt P30939: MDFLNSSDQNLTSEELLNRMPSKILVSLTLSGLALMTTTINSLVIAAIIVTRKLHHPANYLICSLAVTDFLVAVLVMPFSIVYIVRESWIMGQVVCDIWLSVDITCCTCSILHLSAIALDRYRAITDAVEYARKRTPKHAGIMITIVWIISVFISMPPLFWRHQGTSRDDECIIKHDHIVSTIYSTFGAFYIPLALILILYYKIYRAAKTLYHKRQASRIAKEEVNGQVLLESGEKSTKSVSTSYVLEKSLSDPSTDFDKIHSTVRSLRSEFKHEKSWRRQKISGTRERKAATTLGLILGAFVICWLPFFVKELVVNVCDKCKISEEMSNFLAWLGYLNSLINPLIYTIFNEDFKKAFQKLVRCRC
UniProt Q6DN03, whole entry, looked up: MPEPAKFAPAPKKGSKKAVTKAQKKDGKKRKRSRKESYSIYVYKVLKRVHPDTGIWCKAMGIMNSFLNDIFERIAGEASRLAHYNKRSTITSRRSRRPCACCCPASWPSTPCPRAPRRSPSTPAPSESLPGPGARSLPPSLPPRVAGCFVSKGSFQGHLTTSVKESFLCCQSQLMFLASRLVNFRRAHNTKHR
UniProt Q96FZ2: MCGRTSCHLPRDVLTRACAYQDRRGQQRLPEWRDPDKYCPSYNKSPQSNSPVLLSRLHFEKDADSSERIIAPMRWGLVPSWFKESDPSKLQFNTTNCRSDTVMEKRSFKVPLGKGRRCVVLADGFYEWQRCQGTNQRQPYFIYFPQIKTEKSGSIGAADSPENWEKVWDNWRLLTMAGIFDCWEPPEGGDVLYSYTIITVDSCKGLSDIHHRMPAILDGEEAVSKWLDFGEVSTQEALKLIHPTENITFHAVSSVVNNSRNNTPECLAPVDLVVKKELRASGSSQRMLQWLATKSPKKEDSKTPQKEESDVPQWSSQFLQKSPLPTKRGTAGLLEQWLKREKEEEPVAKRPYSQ
UniProt Q9P0W2: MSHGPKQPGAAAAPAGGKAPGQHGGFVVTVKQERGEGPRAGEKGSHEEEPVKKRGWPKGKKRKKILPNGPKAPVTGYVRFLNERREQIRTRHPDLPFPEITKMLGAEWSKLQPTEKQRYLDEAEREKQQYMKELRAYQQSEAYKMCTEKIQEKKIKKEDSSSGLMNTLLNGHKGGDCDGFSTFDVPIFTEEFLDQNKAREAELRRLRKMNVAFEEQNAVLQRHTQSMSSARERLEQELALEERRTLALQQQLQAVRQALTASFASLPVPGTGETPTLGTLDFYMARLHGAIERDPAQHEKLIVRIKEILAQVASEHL
UniProt Q9NQG7: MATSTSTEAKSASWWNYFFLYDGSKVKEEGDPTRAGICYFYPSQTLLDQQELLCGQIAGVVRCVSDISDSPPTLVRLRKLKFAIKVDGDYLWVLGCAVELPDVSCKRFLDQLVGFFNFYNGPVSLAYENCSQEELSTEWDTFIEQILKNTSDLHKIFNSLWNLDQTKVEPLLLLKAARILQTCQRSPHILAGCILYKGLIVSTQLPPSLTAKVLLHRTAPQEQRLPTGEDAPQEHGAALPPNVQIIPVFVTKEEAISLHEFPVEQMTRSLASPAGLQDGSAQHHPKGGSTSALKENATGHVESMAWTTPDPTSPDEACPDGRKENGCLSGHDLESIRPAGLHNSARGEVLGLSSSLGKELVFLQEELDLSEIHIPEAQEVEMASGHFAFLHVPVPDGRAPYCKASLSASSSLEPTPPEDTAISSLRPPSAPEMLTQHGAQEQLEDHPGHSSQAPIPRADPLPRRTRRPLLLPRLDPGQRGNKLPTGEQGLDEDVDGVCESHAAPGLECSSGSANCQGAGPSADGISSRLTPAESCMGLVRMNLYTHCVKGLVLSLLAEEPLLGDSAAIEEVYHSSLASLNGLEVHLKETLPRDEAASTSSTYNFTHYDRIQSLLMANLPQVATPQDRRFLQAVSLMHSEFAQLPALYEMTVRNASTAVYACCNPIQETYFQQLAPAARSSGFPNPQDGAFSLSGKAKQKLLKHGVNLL
UniProt O60725, whole entry, looked up: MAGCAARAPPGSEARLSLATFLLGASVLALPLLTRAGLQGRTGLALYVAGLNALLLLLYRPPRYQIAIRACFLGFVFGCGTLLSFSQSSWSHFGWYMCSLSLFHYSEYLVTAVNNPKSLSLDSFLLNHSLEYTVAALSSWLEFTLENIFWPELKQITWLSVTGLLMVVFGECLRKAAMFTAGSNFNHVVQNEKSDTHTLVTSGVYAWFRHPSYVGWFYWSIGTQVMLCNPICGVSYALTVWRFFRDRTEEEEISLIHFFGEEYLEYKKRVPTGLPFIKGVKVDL
UniProt Q9NSB8: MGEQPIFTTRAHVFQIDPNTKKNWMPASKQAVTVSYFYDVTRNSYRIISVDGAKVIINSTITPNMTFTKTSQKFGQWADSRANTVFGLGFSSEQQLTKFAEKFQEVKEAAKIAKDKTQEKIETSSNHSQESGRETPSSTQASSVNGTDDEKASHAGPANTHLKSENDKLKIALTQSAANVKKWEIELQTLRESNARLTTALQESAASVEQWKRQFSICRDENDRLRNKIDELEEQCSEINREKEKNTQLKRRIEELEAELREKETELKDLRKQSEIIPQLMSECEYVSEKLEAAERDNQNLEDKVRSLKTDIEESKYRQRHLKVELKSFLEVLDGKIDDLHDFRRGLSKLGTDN
UniProt Q00839, whole entry, looked up: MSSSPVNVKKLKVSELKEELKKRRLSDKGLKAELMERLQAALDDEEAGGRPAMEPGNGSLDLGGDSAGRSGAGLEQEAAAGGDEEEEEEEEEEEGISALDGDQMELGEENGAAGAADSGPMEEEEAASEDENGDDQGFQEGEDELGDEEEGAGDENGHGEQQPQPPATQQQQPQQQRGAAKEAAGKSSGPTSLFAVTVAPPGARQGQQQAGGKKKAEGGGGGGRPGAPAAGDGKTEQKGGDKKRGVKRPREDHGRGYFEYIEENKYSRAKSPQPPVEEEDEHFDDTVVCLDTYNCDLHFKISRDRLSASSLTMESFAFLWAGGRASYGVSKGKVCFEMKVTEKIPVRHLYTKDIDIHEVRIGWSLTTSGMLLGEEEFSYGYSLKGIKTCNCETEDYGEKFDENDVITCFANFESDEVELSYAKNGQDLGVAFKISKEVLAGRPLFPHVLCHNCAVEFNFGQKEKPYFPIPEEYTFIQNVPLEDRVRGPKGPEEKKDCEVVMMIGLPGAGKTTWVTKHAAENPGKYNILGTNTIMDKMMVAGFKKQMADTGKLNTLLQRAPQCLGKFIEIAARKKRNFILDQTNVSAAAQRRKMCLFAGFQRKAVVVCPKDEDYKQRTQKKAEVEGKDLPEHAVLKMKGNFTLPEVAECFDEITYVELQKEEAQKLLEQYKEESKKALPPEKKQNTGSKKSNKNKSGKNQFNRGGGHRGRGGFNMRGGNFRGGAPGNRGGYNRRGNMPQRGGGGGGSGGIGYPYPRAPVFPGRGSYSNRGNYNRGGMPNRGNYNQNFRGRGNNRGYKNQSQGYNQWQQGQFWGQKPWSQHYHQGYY
UniProt P04439, whole entry, looked up: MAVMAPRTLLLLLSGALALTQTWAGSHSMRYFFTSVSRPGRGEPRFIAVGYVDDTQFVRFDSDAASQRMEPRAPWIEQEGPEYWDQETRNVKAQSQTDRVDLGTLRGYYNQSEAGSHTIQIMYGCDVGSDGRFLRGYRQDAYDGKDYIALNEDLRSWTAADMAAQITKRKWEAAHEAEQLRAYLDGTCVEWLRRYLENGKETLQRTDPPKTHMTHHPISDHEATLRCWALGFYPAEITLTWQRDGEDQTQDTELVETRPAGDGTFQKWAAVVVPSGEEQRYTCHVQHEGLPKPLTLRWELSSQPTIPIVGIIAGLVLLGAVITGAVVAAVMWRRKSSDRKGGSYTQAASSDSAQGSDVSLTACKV
UniProt Q96ED9: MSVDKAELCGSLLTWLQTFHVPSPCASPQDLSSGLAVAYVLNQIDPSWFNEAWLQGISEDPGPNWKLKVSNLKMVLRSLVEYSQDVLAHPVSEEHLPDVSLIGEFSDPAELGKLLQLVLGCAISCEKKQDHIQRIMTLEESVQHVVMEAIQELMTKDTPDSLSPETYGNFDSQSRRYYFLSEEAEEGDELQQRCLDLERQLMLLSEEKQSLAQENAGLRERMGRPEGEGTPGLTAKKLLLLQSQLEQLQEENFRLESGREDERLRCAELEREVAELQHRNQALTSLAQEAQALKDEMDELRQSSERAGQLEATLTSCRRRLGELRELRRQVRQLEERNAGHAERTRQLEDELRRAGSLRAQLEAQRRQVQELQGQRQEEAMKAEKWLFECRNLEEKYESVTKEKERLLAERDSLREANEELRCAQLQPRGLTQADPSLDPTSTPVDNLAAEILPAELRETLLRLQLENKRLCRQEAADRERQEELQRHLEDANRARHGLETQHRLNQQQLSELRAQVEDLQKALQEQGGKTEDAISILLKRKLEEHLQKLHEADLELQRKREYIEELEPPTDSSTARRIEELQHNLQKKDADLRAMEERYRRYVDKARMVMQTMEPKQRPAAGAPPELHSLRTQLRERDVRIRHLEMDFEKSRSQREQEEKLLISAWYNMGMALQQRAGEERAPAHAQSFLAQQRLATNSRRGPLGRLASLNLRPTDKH
UniProt Q96EW2: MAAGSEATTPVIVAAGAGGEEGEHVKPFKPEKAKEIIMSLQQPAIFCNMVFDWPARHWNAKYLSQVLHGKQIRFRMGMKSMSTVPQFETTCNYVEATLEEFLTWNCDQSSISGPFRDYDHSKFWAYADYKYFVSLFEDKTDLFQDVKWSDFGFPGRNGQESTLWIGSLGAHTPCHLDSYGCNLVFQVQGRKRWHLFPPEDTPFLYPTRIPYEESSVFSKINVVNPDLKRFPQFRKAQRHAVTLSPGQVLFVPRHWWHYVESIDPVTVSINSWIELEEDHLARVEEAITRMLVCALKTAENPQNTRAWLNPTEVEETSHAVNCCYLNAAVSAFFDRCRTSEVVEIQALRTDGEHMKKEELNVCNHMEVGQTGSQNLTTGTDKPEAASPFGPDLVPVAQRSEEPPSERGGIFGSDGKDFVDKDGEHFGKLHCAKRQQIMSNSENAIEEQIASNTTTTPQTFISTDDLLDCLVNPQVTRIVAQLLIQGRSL
UniProt Q58FF6, whole entry, looked up: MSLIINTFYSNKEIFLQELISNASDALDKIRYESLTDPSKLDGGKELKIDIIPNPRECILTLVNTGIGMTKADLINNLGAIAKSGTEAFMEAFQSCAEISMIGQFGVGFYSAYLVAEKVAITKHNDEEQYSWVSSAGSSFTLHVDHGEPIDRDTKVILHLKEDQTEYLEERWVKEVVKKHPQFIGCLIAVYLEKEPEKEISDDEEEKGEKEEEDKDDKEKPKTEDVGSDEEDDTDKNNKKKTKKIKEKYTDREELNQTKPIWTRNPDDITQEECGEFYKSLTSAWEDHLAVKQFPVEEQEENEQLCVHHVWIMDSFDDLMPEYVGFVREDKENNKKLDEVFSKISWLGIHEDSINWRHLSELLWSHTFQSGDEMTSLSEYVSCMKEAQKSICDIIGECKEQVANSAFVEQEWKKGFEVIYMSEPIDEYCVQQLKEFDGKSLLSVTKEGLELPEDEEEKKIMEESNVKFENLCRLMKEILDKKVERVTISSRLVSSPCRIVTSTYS
UniProt Q04756: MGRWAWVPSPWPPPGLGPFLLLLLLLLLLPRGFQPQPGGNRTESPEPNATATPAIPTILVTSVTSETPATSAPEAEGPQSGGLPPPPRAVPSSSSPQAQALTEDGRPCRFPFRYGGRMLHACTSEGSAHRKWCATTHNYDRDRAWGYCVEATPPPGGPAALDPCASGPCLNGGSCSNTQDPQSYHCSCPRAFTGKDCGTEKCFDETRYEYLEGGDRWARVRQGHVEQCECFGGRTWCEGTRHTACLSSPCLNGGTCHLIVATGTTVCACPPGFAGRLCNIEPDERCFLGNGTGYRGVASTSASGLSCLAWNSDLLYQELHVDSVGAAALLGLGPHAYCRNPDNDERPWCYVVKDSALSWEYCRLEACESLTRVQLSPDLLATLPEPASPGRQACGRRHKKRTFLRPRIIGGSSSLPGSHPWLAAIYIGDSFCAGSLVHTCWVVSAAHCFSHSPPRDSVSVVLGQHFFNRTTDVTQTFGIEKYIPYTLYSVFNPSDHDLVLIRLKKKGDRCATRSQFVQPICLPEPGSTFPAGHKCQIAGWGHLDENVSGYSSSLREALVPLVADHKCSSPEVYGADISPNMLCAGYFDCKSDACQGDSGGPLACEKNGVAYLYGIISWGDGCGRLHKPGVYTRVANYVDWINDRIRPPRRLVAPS
UniProt Q8IWL3: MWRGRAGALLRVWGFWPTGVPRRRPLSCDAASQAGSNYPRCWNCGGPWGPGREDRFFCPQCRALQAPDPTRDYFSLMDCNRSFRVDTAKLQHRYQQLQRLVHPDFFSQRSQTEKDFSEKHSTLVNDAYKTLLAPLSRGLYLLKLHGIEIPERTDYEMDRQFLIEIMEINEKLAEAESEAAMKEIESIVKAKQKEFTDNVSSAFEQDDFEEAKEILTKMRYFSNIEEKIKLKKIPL

Compound in test [2]: c1ccc([C@@H]2C[C@H]2NC2CCNCC2)cc1
The procedure, abridged: as §1

Compound in test [3]: C1=CC=C(C=C1)[C@H](COC2=CC3=C(C=C2)NC(=O)N3)NC(=O)C4=CC=CN(C4=O)CC5=CC(=C(C=C5)F)F
A digest of the protocol:
as §1

Compound in test [4]: CC1=C2C(=CC=C1)N=C(N(C2=O)C3=CC=CC=C3C)CN4C=NC5=C(N=CN=C54)N
A digest of the protocol: as §1

Compound in test [5]: Cc1sc2c(c1C)C(c1ccc(Cl)cc1)=N[C@@H](CC(=O)OC(C)(C)C)c1nnc(C)n1-2
The procedure, abridged: as §1

The other results are listed elsewhere or left out.

Take HTR1F (UniProt P30939): the log2 fold change in test [1] is inactive: 0.114; in test [2] it was inactive: 0.261.
Regarding HIST2H2BC (UniProt Q6DN03), the figures for the log2 fold change in test [3], in test [4] and in test [5] were inactive: 0.136, inactive: -0.298 and inactive: -0.198, respectively.
With HMCES (UniProt Q96FZ2), the figures for the log2 fold change in test [3] and in test [5] were inactive: -0.226 and inactive: -0.011, respectively.
On to HMG20B (UniProt Q9P0W2), for which the log2 fold change is inactive: -0.02 in test [3], inactive: 0.033 in test [1] and inactive: 0.082 in test [2].
HPS4 isoform 4 (UniProt Q9NQG7): the log2 fold change in test [5] is inactive: -0.247.
As for ICMT (UniProt O60725), the log2 fold change is inactive: 0.047 in test [3], inactive: 0.115 in test [4] and inactive: 0.07 in test [5].
Regarding HOMER2 (UniProt Q9NSB8), the log2 fold change is inactive: -0.028 in test [1], inactive: -0.178 in test [4], inactive: -0.086 in test [5] and inactive: -0.08 in test [2].
With HNRNPU isoform 2 (UniProt Q00839), in test [5], the log2 fold change is inactive: 0.154.
On to HUWE1, A0A087X1S3, for which the log2 fold change in test [3] is inactive: -0.145; in test [1], inactive: -0.008; in test [5], inactive: 0.002; in test [2], inactive: 0.121.
As to HLA-A isoform 2 (UniProt P04439), the log2 fold change is inactive: -0.176 in test [1] and inactive: -0.013 in test [2].
With HOOK2 (UniProt Q96ED9), the log2 fold change is inactive: 0.145 in test [1], inactive: 0.017 in test [5] and inactive: -0.04 in test [2].
HSPBAP1 (UniProt Q96EW2): the log2 fold change in test [1] is inactive: -0.027; in test [4], inactive: -0.082; in test [2], inactive: 0.161.
HSP90AB4P (UniProt Q58FF6): the log2 fold change is inactive: -0.214 in test [3], inactive: 0.289 in test [1], inactive: -0.099 in test [5] and inactive: -0.069 in test [2].
As for HGFAC (UniProt Q04756), the log2 fold change in test [3] was inactive: -0.12; in test [5], inactive: 0.091.
For HSCB (UniProt Q8IWL3), the log2 fold change in test [1] is inactive: -0.034; in test [4], inactive: -0.003; in test [5], inactive: -0.083; in test [2], inactive: 0.012.

The values above are taken from the supplement of paper PMC10849652.
